Results are given in words; binding and its absence hold for the method and conditions named. Binding seen in cells or lysates may run through a third protein. Some binding calls cover weakened binding; strength is not graded here. For part of these data: Where a sequence is shown, tags or fusion partners need not be part of it. Values belong to the substance of their own block, whether it stands above or below them.
What was measured:
[1] = molecular target: T1, CLCF1_(ProtC) expressed from the bicistronic p40_(FLAG)-T2A-CLCF1_(ProtC) cDNA in Ba/F3 cells (human) (UniProt Q9UBD9); assay: proximity ligation; Duolink flowPLA in Ba/F3 cells treated with brefeldin A, fixed and permeabilized; anti-CLCF1 and anti-p40 primary antibodies; read by flow cytometry
T1 sequence: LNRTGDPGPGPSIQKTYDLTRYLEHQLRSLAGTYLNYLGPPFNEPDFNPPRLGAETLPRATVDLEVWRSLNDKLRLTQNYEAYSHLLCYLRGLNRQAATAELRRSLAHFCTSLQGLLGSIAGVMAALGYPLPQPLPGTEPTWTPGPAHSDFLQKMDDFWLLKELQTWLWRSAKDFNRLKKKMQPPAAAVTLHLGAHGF

Chains of the proteins cited; added tags and fusions are not shown. Lines headed by an entry give the natural chain unless they say otherwise; changes in a name come on top. Residues count along the entry.
UniProt P29460, residues 23-328: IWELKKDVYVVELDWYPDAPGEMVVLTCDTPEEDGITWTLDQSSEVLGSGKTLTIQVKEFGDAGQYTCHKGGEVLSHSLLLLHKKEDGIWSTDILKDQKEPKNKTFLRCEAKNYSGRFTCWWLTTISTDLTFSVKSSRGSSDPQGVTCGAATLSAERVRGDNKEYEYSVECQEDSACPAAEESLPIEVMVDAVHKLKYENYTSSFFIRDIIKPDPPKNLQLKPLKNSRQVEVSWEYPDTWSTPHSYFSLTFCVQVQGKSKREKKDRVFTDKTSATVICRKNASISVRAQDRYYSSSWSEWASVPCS

[2] = molecular target: T2, human CLCF1 tagged with the protein C epitope (CLCF1_(ProtC)) (human) (UniProt Q9UBD9); assay: co-IP; lysates of co-transfected HEK-293T cells (50 mM Tris-HCl pH 7.5, 150 mM NaCl, 1 mM CaCl2, 1% Nonidet P-40, 0.5% sodium deoxycholate); CLCF1_(ProtC) precipitated with anti-ProtC affinity matrix, eluted with EDTA, western blot
T2 sequence: T1 sequence

[3] = molecular target: T3, human CLCF1 stably expressed in Ba/F3 cells (human) (UniProt Q9UBD9); assay: proximity ligation; Duolink flowPLA in Ba/F3 cells treated with brefeldin A, fixed and permeabilized; anti-CLCF1 and anti-p40 primary antibodies; read by flow cytometry
T3 sequence: T1 sequence

[4] = molecular target: T4, human CRLF1 tagged with the FLAG epitope (CRLF1_(FLAG)) (human) (UniProt O75462); assay: co-IP; supernatants of co-transfected HEK-293T cells with 1% Triton X-100; CRLF1_(FLAG) precipitated with anti-FLAG affinity gel, western blot; also without CLCF1 cDNA
T4 sequence: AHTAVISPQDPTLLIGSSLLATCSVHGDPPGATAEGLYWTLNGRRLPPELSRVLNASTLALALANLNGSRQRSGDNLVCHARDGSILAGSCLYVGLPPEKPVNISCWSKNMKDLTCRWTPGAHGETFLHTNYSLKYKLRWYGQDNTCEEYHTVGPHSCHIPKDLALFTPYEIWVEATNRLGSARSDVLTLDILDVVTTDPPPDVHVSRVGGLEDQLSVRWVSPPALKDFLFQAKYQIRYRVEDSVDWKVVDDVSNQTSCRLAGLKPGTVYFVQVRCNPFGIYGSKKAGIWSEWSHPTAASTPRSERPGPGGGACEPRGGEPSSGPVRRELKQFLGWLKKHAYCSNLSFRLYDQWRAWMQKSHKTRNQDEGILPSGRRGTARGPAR

[5] = molecular target: T4, human CRLF1 tagged with the FLAG epitope (CRLF1_(FLAG)) (human); assay: co-IP; sequential immunoprecipitation from supernatants of HEK-293T cells co-expressing CLCF1_(ProtC), CRLF1_(FLAG) and p40: anti-ProtC affinity matrix, then anti-FLAG affinity gel on the eluted fractions
[6] = molecular target: T2, human CLCF1 tagged with the protein C epitope (CLCF1_(ProtC)) (human); assay: as above
[7] = molecular target: T2, human CLCF1 tagged with the protein C epitope (CLCF1_(ProtC)) (human); assay: co-IP; supernatants of HEK-293T cells transfected separately (CLCF1_(ProtC) with CRLF1_(FLAG); p40) mixed in equal parts, 37 °C for 24 h, then anti-ProtC affinity matrix
[8] = molecular target: T2, human CLCF1 tagged with the protein C epitope (CLCF1_(ProtC)) (human); assay: co-IP; supernatants of co-transfected HEK-293T cells with 1 mM CaCl2 and 1% Nonidet P40; CLCF1_(ProtC) precipitated with anti-ProtC affinity matrix, western blot

binding [1]: binds
Substance: p40_(FLAG) expressed from the bicistronic p40_(FLAG)-T2A-CLCF1_(ProtC) cDNA in Ba/F3 cells (from UniProt P29460 23-328)

binding [2]: binds
Substance: human p40 tagged with the FLAG epitope (p40_(FLAG)) (from UniProt P29460 23-328)

binding [3]: binds
Substance: human p40 transduced into Ba/F3 cells that stably expressed CLCF1 (from UniProt P29460 23-328)

binding [4]: binds
binding [2]: binds
binding [5]: binds
binding [6]: binds
binding [7]: binds
binding [8]: binds
Substance: human p40 untagged (p40), the β subunit of IL12/IL23 (from UniProt P29460 23-328)

Source: PMC12485051
